Laboratory results: the supplement of paper PMC6078165

System: Hs578T
Assay: relative JC-1 red fluorescence (viability) vs pre-drug, coculture with fibroblast (fraction); higher = more viable cancer cells
Procedure: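 JC-1 labelled TNBC cells cocultured 1:1 (1,500 cells each) with CellTrace Violet stained primary or stromal fibroblasts in 384-well plates in FluoroBrite medium, treated with one of 42 anticancer drugs at 0.1, 1, 10 or 100 uM. JC-1 red fluorescence (mitochondrial integrity in cancer cells only) was read by plate reader every 8 h for 72 h. Values are normalised to each well's pre-drug value. The stock of one drug was tenfold lower, so its dose labels may be too high.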

O=NN(CCCl)C(=O)NCCCl [Carmustine]
relative JC-1 red fluorescence
Details | 8 h | 16 h | 24 h | 32 h | 40 h | 48 h | 56 h | 64 h | 72 h
0.1 µM | 0.908 | 0.818 | 0.747 | 0.701 | 0.643 | 0.602 | 0.574 | 0.528 | 0.509
1 µM | 0.869 | 0.772 | 0.70741 | 0.662 | 0.591 | 0.542 | 0.522 | 0.478 | 0.456
10 µM | 0.92 | 0.822 | 0.76 | 0.712 | 0.647 | 0.603 | 0.566 | 0.527 | 0.51
100 µM | 0.851 | 0.7729 | 0.739 | 0.711 | 0.655 | 0.622 | 0.616 | 0.586 | 0.579

relative JC-1 red fluorescence
Details | 8 h | 16 h | 24 h | 32 h | 40 h | 48 h | 56 h | 64 h | 72 h
0.1 µM, coculture fibroblast: C12385 | 0.83 | 0.725 | 0.67718 | 0.589 | 0.528 | 0.49 | 0.462 | 0.446 | 0.441
0.1 µM, coculture fibroblast: H6013 | 0.887 | 0.812 | 0.772 | 0.739 | 0.714 | 0.708 | 0.677 | 0.67 | 0.643
0.1 µM, coculture fibroblast: H6019 | 0.7965 | 0.6874 | 0.68 | 0.598 | 0.567 | 0.543 | 0.512 | 0.49 | 0.467
0.1 µM, coculture fibroblast: H6076 | 0.889 | 0.804 | 0.787 | 0.789 | 0.763 | 0.7754 | 0.7571 | 0.77 | 0.771
0.1 µM, coculture fibroblast: H6231 | 0.866 | 0.7611 | 0.692 | 0.68 | 0.617 | 0.593 | 0.55 | 0.532 | 0.514
0.1 µM, coculture fibroblast: HADF | 0.9078 | 0.8662 | 0.751 | 0.695 | 0.636 | 0.597 | 0.56 | 0.541 | 0.508
0.1 µM, coculture fibroblast: HCFa | 0.8947 | 0.843 | 0.747 | 0.697 | 0.617 | 0.574 | 0.533 | 0.507 | 0.458
0.1 µM, coculture fibroblast: HCPF | 0.9054 | 0.8091 | 0.745 | 0.718 | 0.657 | 0.641 | 0.624 | 0.587 | 0.58
0.1 µM, coculture fibroblast: HHSteC | 0.895 | 0.8274 | 0.72 | 0.663 | 0.6 | 0.557 | 0.52 | 0.493 | 0.458
0.1 µM, coculture fibroblast: HMF | 0.8499 | 0.7742 | 0.723 | 0.731 | 0.68 | 0.667 | 0.636 | 0.62 | 0.615
0.1 µM, coculture fibroblast: HPFa | 0.911 | 0.861 | 0.761 | 0.682 | 0.623 | 0.575 | 0.525 | 0.501 | 0.448
0.1 µM, coculture fibroblast: HUF | 0.8779 | 0.785 | 0.758 | 0.648 | 0.582 | 0.554 | 0.518 | 0.509 | 0.503
0.1 µM, coculture fibroblast: Hs27A | 0.8646 | 0.794 | 0.741 | 0.69 | 0.635 | 0.611 | 0.576 | 0.559 | 0.512
0.1 µM, coculture fibroblast: Hs343T | 0.876 | 0.7863 | 0.737 | 0.737 | 0.678 | 0.649 | 0.61 | 0.602 | 0.612
0.1 µM, coculture fibroblast: WS1 | 0.8337 | 0.719 | 0.676 | 0.591 | 0.529 | 0.511 | 0.478 | 0.473 | 0.471
1 µM, coculture fibroblast: C12385 | 0.7825 | 0.711 | 0.698 | 0.608 | 0.559 | 0.529 | 0.514 | 0.51 | 0.513
1 µM, coculture fibroblast: H6013 | 0.854 | 0.844 | 0.826 | 0.817 | 0.808 | 0.7999 | 0.7785 | 0.773 | 0.741
1 µM, coculture fibroblast: H6019 | 0.769 | 0.685 | 0.649 | 0.556 | 0.505 | 0.4726 | 0.437 | 0.4135 | 0.3817
1 µM, coculture fibroblast: H6076 | 0.845 | 0.791 | 0.757 | 0.7582 | 0.724 | 0.729 | 0.726 | 0.73 | 0.746
1 µM, coculture fibroblast: H6231 | 0.892 | 0.792 | 0.726 | 0.674 | 0.613 | 0.586 | 0.547 | 0.518 | 0.5036
1 µM, coculture fibroblast: HADF | 0.902 | 0.801 | 0.738 | 0.683 | 0.646 | 0.631 | 0.6 | 0.595 | 0.574
1 µM, coculture fibroblast: HCFa | 0.819 | 0.769 | 0.716 | 0.661 | 0.602 | 0.585 | 0.54 | 0.523 | 0.483
1 µM, coculture fibroblast: HCPF | 0.886 | 0.791 | 0.735 | 0.692 | 0.637 | 0.606 | 0.591 | 0.552 | 0.543
1 µM, coculture fibroblast: HHSteC | 0.8468 | 0.783 | 0.733 | 0.685 | 0.631 | 0.598 | 0.571 | 0.55 | 0.509
1 µM, coculture fibroblast: HMF | 0.873 | 0.795 | 0.741 | 0.704 | 0.641 | 0.6024 | 0.572 | 0.549 | 0.535
1 µM, coculture fibroblast: HPFa | 0.892 | 0.786 | 0.721 | 0.668 | 0.635 | 0.594 | 0.557 | 0.533 | 0.488
1 µM, coculture fibroblast: HUF | 0.8552 | 0.721 | 0.7 | 0.593 | 0.537 | 0.5 | 0.466 | 0.453 | 0.449
1 µM, coculture fibroblast: Hs27A | 0.86608 | 0.7821 | 0.743 | 0.699 | 0.646 | 0.625 | 0.58 | 0.57 | 0.517
1 µM, coculture fibroblast: Hs343T | 0.87 | 0.776 | 0.739 | 0.724 | 0.652 | 0.629 | 0.606 | 0.593 | 0.599
1 µM, coculture fibroblast: WS1 | 0.805 | 0.702 | 0.673 | 0.576 | 0.524 | 0.507 | 0.484 | 0.489 | 0.493
10 µM, coculture fibroblast: C12385 | 0.8208 | 0.726 | 0.6625 | 0.58 | 0.508 | 0.475 | 0.444 | 0.43 | 0.415
10 µM, coculture fibroblast: H6013 | 0.9014 | 0.83151 | 0.795 | 0.768 | 0.7387 | 0.725 | 0.706 | 0.701 | 0.67
10 µM, coculture fibroblast: H6019 | 0.7892 | 0.684 | 0.635 | 0.543 | 0.491 | 0.459 | 0.419 | 0.399 | 0.373
10 µM, coculture fibroblast: H6076 | 0.895 | 0.806 | 0.771 | 0.7641 | 0.732 | 0.746 | 0.729 | 0.732 | 0.747
10 µM, coculture fibroblast: H6231 | 0.8938 | 0.782 | 0.719 | 0.679 | 0.614 | 0.58 | 0.541 | 0.518 | 0.499
10 µM, coculture fibroblast: HADF | 0.91537 | 0.858 | 0.787 | 0.748 | 0.712 | 0.685 | 0.651 | 0.638 | 0.606
10 µM, coculture fibroblast: HCFa | 0.9 | 0.835 | 0.778 | 0.73 | 0.671 | 0.653 | 0.624 | 0.621 | 0.587
10 µM, coculture fibroblast: HCPF | 0.91915 | 0.8247 | 0.7473 | 0.714 | 0.652 | 0.626 | 0.598 | 0.556 | 0.538
10 µM, coculture fibroblast: HHSteC | 0.899 | 0.839 | 0.765 | 0.723 | 0.667 | 0.637 | 0.607 | 0.584 | 0.546
10 µM, coculture fibroblast: HMF | 0.9 | 0.81 | 0.745 | 0.7258 | 0.67 | 0.647 | 0.613 | 0.591 | 0.562
10 µM, coculture fibroblast: HPFa | 0.92083 | 0.825 | 0.75 | 0.684 | 0.632 | 0.588 | 0.541 | 0.514 | 0.46
10 µM, coculture fibroblast: HUF | 0.872 | 0.783 | 0.725 | 0.616 | 0.557 | 0.521 | 0.485 | 0.485 | 0.471
10 µM, coculture fibroblast: Hs27A | 0.878 | 0.841 | 0.81 | 0.77 | 0.716 | 0.699 | 0.662 | 0.653 | 0.608
10 µM, coculture fibroblast: Hs343T | 0.90097 | 0.795 | 0.745 | 0.723 | 0.662 | 0.64 | 0.587 | 0.561 | 0.548
10 µM, coculture fibroblast: WS1 | 0.8206 | 0.703 | 0.66 | 0.569 | 0.513 | 0.494 | 0.456 | 0.443 | 0.42
100 µM, coculture fibroblast: C12385 | 0.8049 | 0.728 | 0.698 | 0.603 | 0.544 | 0.516 | 0.489 | 0.485 | 0.483
100 µM, coculture fibroblast: H6013 | 0.8126 | 0.7524 | 0.709 | 0.666 | 0.646 | 0.639 | 0.62 | 0.627 | 0.607
100 µM, coculture fibroblast: H6019 | 0.745 | 0.661 | 0.638 | 0.545 | 0.51 | 0.499 | 0.472 | 0.451 | 0.422
100 µM, coculture fibroblast: H6076 | 0.857 | 0.7976 | 0.766 | 0.764 | 0.731 | 0.74 | 0.752 | 0.763 | 0.78
100 µM, coculture fibroblast: H6231 | 0.872 | 0.8233 | 0.791 | 0.77 | 0.735 | 0.732 | 0.725 | 0.713 | 0.719
100 µM, coculture fibroblast: HADF | 0.905 | 0.879 | 0.8366 | 0.7989 | 0.77762 | 0.7675 | 0.7396 | 0.7397 | 0.7184
100 µM, coculture fibroblast: HCFa | 0.8505 | 0.809 | 0.752 | 0.698 | 0.643 | 0.624 | 0.593 | 0.577 | 0.56
100 µM, coculture fibroblast: HCPF | 0.883 | 0.795 | 0.755 | 0.719 | 0.649 | 0.622 | 0.611 | 0.568 | 0.5456
100 µM, coculture fibroblast: HHSteC | 0.8362 | 0.77 | 0.721 | 0.674 | 0.641 | 0.608 | 0.588 | 0.577 | 0.549
100 µM, coculture fibroblast: HMF | 0.8657 | 0.7724 | 0.711 | 0.67 | 0.609 | 0.58 | 0.552 | 0.526 | 0.504
100 µM, coculture fibroblast: HPFa | 0.882 | 0.806 | 0.723 | 0.653 | 0.615 | 0.583 | 0.536 | 0.514 | 0.475
100 µM, coculture fibroblast: HUF | 0.8055 | 0.686 | 0.654 | 0.549 | 0.494 | 0.466 | 0.446 | 0.4438 | 0.4438
100 µM, coculture fibroblast: Hs27A | 0.85 | 0.84 | 0.809 | 0.758 | 0.715 | 0.716 | 0.681 | 0.681 | 0.64
100 µM, coculture fibroblast: Hs343T | 0.868 | 0.769 | 0.728 | 0.716 | 0.642 | 0.618 | 0.581 | 0.557 | 0.538
100 µM, coculture fibroblast: WS1 | 0.7519 | 0.6547 | 0.62 | 0.517 | 0.465 | 0.452 | 0.432 | 0.437 | 0.435

The reference is the same well before dosing, and untreated signal decays as well.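 Fibroblast labels name human fibroblasts: mostly primary ones from tissues such as uterus (C12385, HUF), lung (H6013), bone (Hs27A), adrenal (HADF) and skin (WS1), plus mammary HMF and breast cancer-associated Hs343T. The cancer cells are basal-like or mesenchymal-like triple-negative breast cancer lines. The paper calls a changed response a hit when it shifts by more than 3x the replicate standard deviation. The tissue of the other fibroblasts is not given here.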
